The other results are listed elsewhere or left out.

The chains behind the UniProt entries cited, without tags or fusion partners. Where a name states a change or a piece, a line headed by the entry shows the natural chain unless it says otherwise.
UniProt O00566: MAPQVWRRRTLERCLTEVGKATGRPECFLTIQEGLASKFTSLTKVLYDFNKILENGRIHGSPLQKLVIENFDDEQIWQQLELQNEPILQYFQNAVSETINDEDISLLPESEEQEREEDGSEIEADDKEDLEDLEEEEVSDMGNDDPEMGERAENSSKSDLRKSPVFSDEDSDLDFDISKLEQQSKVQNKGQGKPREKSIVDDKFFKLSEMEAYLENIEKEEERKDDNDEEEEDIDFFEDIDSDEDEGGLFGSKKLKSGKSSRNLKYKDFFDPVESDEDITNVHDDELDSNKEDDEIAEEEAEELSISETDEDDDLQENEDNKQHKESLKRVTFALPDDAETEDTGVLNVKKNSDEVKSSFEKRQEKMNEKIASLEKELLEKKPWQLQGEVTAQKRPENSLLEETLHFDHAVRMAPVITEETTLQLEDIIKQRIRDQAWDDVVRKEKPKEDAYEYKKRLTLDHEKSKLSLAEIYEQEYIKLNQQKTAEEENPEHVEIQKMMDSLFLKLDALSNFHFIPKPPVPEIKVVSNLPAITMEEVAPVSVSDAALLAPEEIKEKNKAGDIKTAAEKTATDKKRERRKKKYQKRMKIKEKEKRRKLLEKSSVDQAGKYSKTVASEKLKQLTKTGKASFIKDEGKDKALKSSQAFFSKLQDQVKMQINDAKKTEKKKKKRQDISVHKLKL
UniProt O43451: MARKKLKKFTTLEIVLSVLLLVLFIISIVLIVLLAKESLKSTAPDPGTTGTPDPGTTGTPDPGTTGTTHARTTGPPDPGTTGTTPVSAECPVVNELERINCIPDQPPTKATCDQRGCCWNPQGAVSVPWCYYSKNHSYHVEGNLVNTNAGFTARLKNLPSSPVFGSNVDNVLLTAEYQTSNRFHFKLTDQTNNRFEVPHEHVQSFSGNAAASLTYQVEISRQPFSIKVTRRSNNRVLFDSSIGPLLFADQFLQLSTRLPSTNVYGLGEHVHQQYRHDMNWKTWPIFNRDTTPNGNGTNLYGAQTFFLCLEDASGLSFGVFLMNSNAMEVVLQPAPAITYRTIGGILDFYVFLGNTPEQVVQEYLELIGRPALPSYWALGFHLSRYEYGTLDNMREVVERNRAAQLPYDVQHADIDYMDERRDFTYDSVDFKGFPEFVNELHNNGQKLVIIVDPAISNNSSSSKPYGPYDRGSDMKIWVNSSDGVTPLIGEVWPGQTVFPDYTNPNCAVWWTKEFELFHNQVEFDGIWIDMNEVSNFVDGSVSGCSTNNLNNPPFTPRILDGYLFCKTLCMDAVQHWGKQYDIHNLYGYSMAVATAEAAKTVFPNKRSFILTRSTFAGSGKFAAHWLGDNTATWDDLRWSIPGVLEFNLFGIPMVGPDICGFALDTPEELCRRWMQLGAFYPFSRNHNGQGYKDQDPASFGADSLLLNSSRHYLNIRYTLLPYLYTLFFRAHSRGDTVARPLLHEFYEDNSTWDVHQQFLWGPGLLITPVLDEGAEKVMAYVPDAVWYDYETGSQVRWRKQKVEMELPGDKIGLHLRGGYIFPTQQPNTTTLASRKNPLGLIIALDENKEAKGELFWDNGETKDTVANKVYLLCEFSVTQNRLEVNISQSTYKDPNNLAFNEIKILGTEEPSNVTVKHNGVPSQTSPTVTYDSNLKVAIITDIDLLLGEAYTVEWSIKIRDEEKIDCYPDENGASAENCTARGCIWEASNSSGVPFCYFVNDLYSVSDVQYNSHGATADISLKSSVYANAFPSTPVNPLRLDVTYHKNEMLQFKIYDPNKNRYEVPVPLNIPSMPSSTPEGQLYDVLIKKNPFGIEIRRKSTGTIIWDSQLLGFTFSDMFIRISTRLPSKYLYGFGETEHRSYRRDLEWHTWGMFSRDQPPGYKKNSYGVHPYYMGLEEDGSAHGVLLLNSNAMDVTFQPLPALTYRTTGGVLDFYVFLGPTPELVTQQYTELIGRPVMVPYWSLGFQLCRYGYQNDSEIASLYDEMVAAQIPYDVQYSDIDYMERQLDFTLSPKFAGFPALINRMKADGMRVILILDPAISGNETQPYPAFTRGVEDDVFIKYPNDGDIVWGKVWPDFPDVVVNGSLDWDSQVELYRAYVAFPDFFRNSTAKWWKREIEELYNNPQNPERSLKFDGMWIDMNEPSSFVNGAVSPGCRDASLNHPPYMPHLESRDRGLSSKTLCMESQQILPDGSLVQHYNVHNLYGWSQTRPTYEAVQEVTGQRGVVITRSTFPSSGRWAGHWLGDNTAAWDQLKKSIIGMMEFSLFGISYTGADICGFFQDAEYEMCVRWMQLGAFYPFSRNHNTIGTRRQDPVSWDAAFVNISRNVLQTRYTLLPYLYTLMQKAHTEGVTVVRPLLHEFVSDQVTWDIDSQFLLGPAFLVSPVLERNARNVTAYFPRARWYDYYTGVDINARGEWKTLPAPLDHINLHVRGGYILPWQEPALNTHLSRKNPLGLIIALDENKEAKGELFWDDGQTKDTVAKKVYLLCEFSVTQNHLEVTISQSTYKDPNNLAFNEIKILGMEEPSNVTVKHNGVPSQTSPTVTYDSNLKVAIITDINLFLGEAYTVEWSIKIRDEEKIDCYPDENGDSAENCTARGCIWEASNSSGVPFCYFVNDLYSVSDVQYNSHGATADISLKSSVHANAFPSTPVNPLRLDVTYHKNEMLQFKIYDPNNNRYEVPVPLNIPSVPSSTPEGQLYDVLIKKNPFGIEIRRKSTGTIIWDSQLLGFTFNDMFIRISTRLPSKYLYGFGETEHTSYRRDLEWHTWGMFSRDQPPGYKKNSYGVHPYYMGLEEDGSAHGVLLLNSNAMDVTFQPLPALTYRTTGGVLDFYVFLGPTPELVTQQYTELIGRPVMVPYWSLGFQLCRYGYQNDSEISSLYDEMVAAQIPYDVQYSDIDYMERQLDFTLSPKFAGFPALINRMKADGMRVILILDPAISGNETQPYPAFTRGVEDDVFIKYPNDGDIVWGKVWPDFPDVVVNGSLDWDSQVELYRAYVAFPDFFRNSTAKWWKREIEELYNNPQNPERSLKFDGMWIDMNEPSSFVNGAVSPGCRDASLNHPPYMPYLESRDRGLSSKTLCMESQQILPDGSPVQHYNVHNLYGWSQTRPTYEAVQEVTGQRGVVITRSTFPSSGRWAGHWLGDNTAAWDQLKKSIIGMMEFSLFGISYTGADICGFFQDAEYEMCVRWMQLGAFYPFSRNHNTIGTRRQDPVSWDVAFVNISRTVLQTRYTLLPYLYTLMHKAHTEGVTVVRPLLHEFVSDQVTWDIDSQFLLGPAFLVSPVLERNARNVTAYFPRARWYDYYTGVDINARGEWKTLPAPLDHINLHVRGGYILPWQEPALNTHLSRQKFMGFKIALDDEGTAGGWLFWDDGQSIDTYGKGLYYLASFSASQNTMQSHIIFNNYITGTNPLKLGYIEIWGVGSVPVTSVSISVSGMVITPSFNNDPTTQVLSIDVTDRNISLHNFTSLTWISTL
UniProt Q99735: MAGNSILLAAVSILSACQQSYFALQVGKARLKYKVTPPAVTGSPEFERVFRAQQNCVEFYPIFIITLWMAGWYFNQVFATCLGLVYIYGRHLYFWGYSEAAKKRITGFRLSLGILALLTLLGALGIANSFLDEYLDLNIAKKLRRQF
UniProt Q9H7H0: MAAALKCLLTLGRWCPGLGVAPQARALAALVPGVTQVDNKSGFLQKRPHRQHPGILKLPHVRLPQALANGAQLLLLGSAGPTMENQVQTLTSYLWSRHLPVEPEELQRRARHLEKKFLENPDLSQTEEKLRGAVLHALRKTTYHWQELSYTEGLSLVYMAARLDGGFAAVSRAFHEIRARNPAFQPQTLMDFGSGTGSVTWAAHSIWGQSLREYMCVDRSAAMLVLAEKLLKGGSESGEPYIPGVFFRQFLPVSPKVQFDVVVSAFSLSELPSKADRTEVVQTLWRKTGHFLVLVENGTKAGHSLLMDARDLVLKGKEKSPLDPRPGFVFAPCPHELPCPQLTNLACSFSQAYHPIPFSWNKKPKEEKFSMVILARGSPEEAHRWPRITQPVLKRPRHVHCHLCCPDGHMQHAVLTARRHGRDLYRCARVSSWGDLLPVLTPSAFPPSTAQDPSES
UniProt Q5JRA6: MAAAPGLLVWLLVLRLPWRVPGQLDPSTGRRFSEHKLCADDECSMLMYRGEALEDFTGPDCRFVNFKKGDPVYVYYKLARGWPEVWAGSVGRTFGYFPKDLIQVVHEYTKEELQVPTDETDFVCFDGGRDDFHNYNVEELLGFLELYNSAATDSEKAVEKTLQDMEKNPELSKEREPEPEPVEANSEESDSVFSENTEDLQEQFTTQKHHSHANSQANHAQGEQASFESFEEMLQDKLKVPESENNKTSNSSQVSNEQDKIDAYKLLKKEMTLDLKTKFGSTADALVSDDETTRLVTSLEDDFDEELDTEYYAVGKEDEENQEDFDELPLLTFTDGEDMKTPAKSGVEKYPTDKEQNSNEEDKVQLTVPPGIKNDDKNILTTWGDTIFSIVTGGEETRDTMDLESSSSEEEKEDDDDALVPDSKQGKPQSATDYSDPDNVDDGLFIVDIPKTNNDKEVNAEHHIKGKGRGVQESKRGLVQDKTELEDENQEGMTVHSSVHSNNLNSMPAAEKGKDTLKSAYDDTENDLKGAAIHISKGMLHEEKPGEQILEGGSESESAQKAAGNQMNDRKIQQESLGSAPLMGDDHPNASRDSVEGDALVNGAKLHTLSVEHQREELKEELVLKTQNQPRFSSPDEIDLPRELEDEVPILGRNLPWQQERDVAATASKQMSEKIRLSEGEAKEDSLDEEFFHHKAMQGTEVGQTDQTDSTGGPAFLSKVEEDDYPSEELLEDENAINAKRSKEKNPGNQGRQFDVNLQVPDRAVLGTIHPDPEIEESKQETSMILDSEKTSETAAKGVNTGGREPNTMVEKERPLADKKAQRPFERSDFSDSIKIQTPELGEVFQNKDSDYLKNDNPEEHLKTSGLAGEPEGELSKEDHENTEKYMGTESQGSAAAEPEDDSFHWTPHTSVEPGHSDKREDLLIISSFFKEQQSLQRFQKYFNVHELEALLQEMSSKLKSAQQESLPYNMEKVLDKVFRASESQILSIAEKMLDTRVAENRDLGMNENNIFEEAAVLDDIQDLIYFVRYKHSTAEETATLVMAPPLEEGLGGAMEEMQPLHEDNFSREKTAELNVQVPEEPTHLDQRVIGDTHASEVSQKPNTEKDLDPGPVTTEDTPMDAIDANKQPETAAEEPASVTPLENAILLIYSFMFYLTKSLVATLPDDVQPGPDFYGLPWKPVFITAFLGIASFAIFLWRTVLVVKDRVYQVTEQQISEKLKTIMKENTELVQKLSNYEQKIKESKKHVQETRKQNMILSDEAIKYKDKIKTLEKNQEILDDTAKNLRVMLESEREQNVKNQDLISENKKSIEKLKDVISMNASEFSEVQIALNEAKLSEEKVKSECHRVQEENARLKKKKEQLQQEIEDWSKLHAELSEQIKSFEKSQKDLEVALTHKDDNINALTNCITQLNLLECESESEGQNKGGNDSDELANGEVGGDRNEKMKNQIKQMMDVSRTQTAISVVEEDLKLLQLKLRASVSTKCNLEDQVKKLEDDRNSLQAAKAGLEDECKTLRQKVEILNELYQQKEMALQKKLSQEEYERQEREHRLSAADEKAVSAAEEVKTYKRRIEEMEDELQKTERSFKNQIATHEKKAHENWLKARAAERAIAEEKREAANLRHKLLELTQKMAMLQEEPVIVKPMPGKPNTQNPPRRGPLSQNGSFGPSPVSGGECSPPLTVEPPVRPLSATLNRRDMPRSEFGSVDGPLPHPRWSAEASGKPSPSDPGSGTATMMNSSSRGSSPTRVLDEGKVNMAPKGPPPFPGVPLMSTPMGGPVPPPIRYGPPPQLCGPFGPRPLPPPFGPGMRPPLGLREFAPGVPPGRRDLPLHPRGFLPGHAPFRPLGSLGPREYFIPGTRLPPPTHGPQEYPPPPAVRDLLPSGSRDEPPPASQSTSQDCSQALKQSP
UniProt O00255, whole entry: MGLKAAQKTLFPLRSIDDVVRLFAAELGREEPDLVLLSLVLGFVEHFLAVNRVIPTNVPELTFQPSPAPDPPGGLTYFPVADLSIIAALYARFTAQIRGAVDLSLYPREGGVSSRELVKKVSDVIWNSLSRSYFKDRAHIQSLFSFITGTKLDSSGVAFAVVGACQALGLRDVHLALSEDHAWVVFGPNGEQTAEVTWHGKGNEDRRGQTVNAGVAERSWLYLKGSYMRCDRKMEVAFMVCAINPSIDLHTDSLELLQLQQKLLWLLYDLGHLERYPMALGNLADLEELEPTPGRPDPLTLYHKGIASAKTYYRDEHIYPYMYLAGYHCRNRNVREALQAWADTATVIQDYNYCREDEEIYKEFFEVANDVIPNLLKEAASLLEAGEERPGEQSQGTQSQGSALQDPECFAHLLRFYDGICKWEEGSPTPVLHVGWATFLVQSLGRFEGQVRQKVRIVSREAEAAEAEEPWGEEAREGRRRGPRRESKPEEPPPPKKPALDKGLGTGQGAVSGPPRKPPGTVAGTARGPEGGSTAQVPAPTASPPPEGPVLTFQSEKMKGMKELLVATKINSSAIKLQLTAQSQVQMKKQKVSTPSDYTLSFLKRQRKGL

Compound in the assay: COc1ccc(Cn2ccc3ccc(C(=O)NO)cc32)cc1
Description: dose-dependent thermal stabilisation call (2D-TPP, DLPTP, 10% FDR) (binary (1 = stabilised)); higher = stabilised by the compound. The following applies: system: HL-60 intact cells; concentration range 0.04-10 µM.
MRPS18B (UniProt Q9Y676): the “dose-dependent thermal stabilisation call” value is inactive: 0.

In the case of MPHOSPH10 (UniProt O00566), the “dose-dependent thermal stabilisation call” value was inactive: 0.

As for MAP3K3 (UniProt Q99759), the “dose-dependent thermal stabilisation call” value is inactive: 0.

Take MICAL1 (UniProt Q8TDZ2): the “dose-dependent thermal stabilisation call” value was inactive: 0.

As for MIPEP (UniProt Q99797), the “dose-dependent thermal stabilisation call” value was inactive: 0.

As for MGAM (UniProt O43451), the “dose-dependent thermal stabilisation call” value was inactive: 0.

For MLL2, the “dose-dependent thermal stabilisation call” value is inactive: 0.

For the target MORC2 (UniProt Q9Y6X9), the “dose-dependent thermal stabilisation call” value was inactive: 0.

Regarding MGAT2 (UniProt Q10469), the “dose-dependent thermal stabilisation call” value is inactive: 0.

As to MRPL50 (UniProt Q8N5N7), the “dose-dependent thermal stabilisation call” value is active: 1.

On to MRPS17 (UniProt Q9Y2R5), for which the “dose-dependent thermal stabilisation call” value was inactive: 0.

Consider MINA (UniProt Q8IUF8), for which the “dose-dependent thermal stabilisation call” value was inactive: 0.

Consider MGST2 (UniProt Q99735), for which the “dose-dependent thermal stabilisation call” value was inactive: 0.

Turning to METT11D1 (UniProt Q9H7H0), the “dose-dependent thermal stabilisation call” value is inactive: 0.

Consider MRPL46 (UniProt Q9H2W6), for which the “dose-dependent thermal stabilisation call” value was inactive: 0.

As to MON1A (UniProt Q86VX9), the “dose-dependent thermal stabilisation call” value is inactive: 0.

Regarding MDH1 (UniProt P40925), the “dose-dependent thermal stabilisation call” value is active: 1.

With MMS19 (UniProt Q96T76), the “dose-dependent thermal stabilisation call” value was inactive: 0.

Consider MRPL48 (UniProt Q96GC5), for which the “dose-dependent thermal stabilisation call” value was inactive: 0.

In the case of MIA3 (UniProt Q5JRA6), the “dose-dependent thermal stabilisation call” value is inactive: 0.

Consider MPO (UniProt P05164), for which the “dose-dependent thermal stabilisation call” value is inactive: 0.

In the case of MRPL22 (UniProt Q9NWU5), the “dose-dependent thermal stabilisation call” value is inactive: 0.

In the case of MAPRE3 (UniProt Q9UPY8), the “dose-dependent thermal stabilisation call” value was inactive: 0.

MEN1 (UniProt O00255): the “dose-dependent thermal stabilisation call” value was inactive: 0.

For MAPT (UniProt P10636), the “dose-dependent thermal stabilisation call” value was inactive: 0.

As for MECP2 (UniProt P51608), the “dose-dependent thermal stabilisation call” value was inactive: 0.

Consider MGC52424, for which the “dose-dependent thermal stabilisation call” value was inactive: 0.

Take MRPL24 (UniProt Q96A35): the “dose-dependent thermal stabilisation call” value is inactive: 0.

The values above are taken from the supplement of paper PMC7666118.
